Measurements from patent US20230041069A1, “ELECTROLYTE FOR ELECTROCHEMICAL GAS SENSOR AND ELECTROCHEMICAL GAS SENSOR INCLUDING THE SAME” (Samsung Electronics Co., Ltd., priority 2021, published 2023).

Experiment: Sensitivity of electrochemical CO sensors using the protonic ionic liquid as electrolyte
Details: CO sensor exposed to 100 ppm of CO in the atmosphere

Compound | Sensitivity [nA/ppm cm^2]
CCNCC.O=S(=O)(O)O [Example 1] | 32.2
O=S(=O)(O)O.c1ccncc1 [Example 3] | 23.2
CCN1CCCC1 [Example 4] | 18.19
COCCNCCOC [Example 7] | 22.11
CCN1CCCC1 [Example 8] | 5.94
CCNCC.CNS(=O)(=O)O [Example 9] | 10.01
CCN1CCCC1 [Example 10] | 9.59
CNS(=O)(=O)O.COCCN [Example 11] | 8.53
CNCCOC [Example 12] | 10.29
CCn1ccnc1.O=[N+]([O-])O [compound 14, 1-Ethylimidazolium nitrate, reference compound] | 4.68
CCN.O=[N+]([O-])O [compound 15, Ethylammonium nitrate, reference compound] | 3.18
CCCN.O=[N+]([O-])O [compound 16, Propylammonium nitrate, reference compound] | 0.16
